PubChem BioAssay AID2762 (National Center for Advancing Translational Sciences (NCATS), 2010)
This list was built around the results that the source calls inconclusive (neither active nor inactive); the mix of calls is not that of the screen. Where the call is inconclusive, the potency comes from a doubtful curve fit. Calls of active or inactive are those of the source. The call rests on the fitted dose curve; in most records, active means well fitted inhibition curve with a large enough effect; inconclusive means small, poorly fitted or top-dose-only effect, or effect the other way; inactive means no such curve, though single readings can be large or run the other way.

Sequences of proteins named here, by UniProt entry; tags and fusion partners are left off. A change or cut given only in a name is not applied to a line headed by its entry.
UniProt P51450: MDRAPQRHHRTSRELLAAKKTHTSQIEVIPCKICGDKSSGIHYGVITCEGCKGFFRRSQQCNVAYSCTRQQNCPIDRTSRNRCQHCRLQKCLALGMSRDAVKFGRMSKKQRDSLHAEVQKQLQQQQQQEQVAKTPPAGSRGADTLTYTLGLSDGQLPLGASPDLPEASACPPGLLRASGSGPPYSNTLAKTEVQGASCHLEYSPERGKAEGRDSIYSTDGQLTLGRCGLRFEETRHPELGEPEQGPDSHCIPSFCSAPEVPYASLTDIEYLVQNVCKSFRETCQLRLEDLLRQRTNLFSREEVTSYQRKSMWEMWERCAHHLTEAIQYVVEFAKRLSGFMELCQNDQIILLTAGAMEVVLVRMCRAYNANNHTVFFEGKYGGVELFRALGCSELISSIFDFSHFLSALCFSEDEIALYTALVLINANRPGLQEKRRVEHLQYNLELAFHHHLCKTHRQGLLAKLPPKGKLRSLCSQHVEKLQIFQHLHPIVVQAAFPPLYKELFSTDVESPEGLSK

Target: Nuclear receptor ROR-gamma (Mus musculus) (UniProt P51450)
Assay: Concentration response confirmation assay for inhibitors of ROR gamma transcriptional activity
Conditions: Drosophila S2 Gal4-RORgamma UAS-luciferase, 20 h; series mostly up to 46.1 µM; activity change, negative = inhibition: at the top concentration
Summary of the method: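 Read-out: Photinus luciferase luminescence; inhibitors lower reporter signal. Insect Schneider cells with Gal4-ROR gamma fusion under metallothionein promoter, UAS reporter; 700 uM final copper sulfate induction, 20 hr, ambient temperature.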

SMILES | Potency | activity change, negative = inhibition
O=C(CCCN1C(=O)/C(=C/c2ccccc2Cl)SC1=S)NNC(=O)c1ccc(Cl)cc1Cl | active: 1.58 µM | 
Clc1ccc(-c2noc(CN(Cc3ccccn3)CC3CCCO3)n2)cc1 (stereo not drawn) | inconclusive: 7.05 µM [activator, partial curve, poor fit] | 
O=[N+]([O-])c1ccccc1/C=C/C=N/n1c(-c2ccc(Cl)cc2)n[nH]c1=S |  | inactive: 29.3%
COc1ccc(/C=C/C(=O)NC(=S)NCC2CCCO2)cc1 (stereo not drawn) | active: 11.2 µM | 
c1ccc(Cn2c(-c3ccccc3)c[n+]3c2SCCC3)cc1 |  | inactive: 22.7%
CN1CCN(C(=O)CCN2C(=O)/C(=C/c3ccccc3Cl)SC2=S)CC1 | inconclusive: 17.7 µM [inhibitor, partial curve, poor fit] | 
Cc1cc(NC(=S)NC(=O)/C=C/c2ccc(S(=O)(=O)N3CCOCC3)cc2)ccc1Br | active: 7.05 µM | 
CCCCc1nnc(NC(=O)CS(=O)(=O)Cc2ccccc2)s1 | inconclusive: 0.0141 µM [activator, full curve, poor fit] | 
CC(=O)c1cccc(N(CC(=O)Nc2ccccc2C(=O)N2CCCC2)S(C)(=O)=O)c1 |  | inactive: 0.355%
CCOC(=O)c1sc(NC(=O)c2sc(C)nc2C)nc1C |  | inactive: 6.4%
Cc1nnc(SCC(=O)Nc2ccc(S(=O)(=O)Nc3ccc(Cl)nn3)cc2)s1 | inconclusive: 7.91 µM [inhibitor, single point] | 
Cc1nnsc1C(=O)NC1CCCc2c1cnn2-c1ccc(C(C)(C)C)cc1 (stereo not drawn) | inconclusive: 3.15 µM [activator, partial curve] | 
COc1ccc(C(C#N)N2N=C(C)CC2c2ccccc2)cc1 (stereo not drawn) |  | inactive: 7.28%
Cc1cc(C)nc(-n2nc(C)cc2NC(=O)c2ccc(F)cc2F)n1 | active: 0.996 µM | 
CC(C)(C)c1cc(C(=O)N2CCc3ccccc32)ccn1 | inconclusive: 8.88 µM [activator, partial curve, poor fit] | 
CCOc1ccccc1OCCCC(=O)Nc1nc2ccccc2[nH]1 | inconclusive: 9.96 µM [inhibitor, full curve, poor fit] | 
CCc1ccc(-c2nc(CSCC(=O)NC3CC3)c(C)o2)cc1 | active: 3.97 µM | 
CCN(CC(=O)Nc1ccc(C(=O)Nc2ccc(OC)cc2)cc1)Cc1nc2ccccc2c(=O)[nH]1 | inconclusive: 12.5 µM [inhibitor, partial curve, poor fit] | 
Cn1nnnc1NCc1ccccc1F | inconclusive: 0.0013 µM [activator] | 
Cc1nn(-c2ccccc2)c(C)c1C(=O)Nc1nnc(-c2ccco2)o1 | active: 0.996 µM | 
Clc1ccccc1/C=N/NC1=Nc2cccc3cccc1c23 | active: 0.199 µM | 
CCOc1ccc(OCc2cccc(C(=O)O)c2)cc1 | inconclusive: 2.5 µM [inhibitor, full curve, poor fit] | 
CCCCn1c(CN2CCN(c3ccccc3)CC2)nc2c1c(=O)n(C)c(=O)n2C | inconclusive: 6.28 µM [activator, partial curve] | 

Two compounds drawn at random from the list so far:
SMILES | Potency | activity change, negative = inhibition
Cc1cc(NC(=S)NC(=O)/C=C/c2ccc(S(=O)(=O)N3CCOCC3)cc2)ccc1Br | active: 7.05 µM | 
CCN(CC(=O)Nc1ccc(C(=O)Nc2ccc(OC)cc2)cc1)Cc1nc2ccccc2c(=O)[nH]1 | inconclusive: 12.5 µM [inhibitor, partial curve, poor fit] | 
